The other results are listed elsewhere or left out.
Legend:
Assay in all cases: log2 fold change, soluble protein after heating vs DMSO (PISA); higher = thermal stabilisation; K562 lysate, 10 uM; active = over 0.2 and 3.5 SD of the protein, either way, in both replicates (recomputed)
erlotinib = compound: C#Cc1cccc(Nc2ncnc3cc(OCCOC)c(OCCOC)cc23)c1 [erlotinib]
Method in brief: (§1)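 Thermal stability, expressed as log-two fold change relative to solvent controls, is given from duplicates. Crude K562 extract in PBS pH 7.4 with 1 mM MgCl2, at 1 mg/mL protein, was treated with 10 μM compound for 30 min and heated in aliquots for 3 min across 48°C-58°C. After pooling, adjustment to 0.5% NP-40 at 4°C and centrifugation at 21,000xg for 90 min, supernatant protein was measured by TMTpro 16plex LC-MS/MS with channel sums equalised.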

Amino acid sequences for entries named in this document (tags omitted). A change or cut given only in a name is not applied to a line headed by its entry.
UniProt Q8IZ07: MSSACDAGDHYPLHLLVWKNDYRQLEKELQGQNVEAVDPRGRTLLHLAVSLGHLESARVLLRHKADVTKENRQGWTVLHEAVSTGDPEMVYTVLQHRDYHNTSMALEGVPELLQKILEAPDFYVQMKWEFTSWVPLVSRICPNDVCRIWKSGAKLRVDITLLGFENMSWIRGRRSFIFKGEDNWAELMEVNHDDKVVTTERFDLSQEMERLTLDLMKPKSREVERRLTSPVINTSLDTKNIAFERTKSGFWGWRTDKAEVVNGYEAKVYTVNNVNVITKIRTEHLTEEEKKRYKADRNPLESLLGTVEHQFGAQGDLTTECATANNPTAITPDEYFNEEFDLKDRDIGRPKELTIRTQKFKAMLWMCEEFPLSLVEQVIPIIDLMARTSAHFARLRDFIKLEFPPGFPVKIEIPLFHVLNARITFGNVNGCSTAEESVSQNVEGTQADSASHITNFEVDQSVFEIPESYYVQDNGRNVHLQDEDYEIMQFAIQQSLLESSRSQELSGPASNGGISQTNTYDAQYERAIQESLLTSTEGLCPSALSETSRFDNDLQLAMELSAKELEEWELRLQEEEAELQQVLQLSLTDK
UniProt Q5I7T1: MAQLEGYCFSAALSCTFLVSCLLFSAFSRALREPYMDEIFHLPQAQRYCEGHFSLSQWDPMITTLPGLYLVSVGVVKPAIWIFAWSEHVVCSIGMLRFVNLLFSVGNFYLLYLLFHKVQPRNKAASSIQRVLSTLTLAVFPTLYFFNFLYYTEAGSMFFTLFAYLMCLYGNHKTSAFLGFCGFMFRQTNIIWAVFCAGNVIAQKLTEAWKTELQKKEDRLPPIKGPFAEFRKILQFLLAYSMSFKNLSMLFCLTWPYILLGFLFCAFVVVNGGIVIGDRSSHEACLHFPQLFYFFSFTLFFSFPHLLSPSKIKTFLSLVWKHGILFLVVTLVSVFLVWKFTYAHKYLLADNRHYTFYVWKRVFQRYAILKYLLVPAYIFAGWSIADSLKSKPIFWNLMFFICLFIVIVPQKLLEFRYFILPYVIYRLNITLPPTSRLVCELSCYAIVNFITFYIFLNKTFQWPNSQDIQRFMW
UniProt Q9HCJ1: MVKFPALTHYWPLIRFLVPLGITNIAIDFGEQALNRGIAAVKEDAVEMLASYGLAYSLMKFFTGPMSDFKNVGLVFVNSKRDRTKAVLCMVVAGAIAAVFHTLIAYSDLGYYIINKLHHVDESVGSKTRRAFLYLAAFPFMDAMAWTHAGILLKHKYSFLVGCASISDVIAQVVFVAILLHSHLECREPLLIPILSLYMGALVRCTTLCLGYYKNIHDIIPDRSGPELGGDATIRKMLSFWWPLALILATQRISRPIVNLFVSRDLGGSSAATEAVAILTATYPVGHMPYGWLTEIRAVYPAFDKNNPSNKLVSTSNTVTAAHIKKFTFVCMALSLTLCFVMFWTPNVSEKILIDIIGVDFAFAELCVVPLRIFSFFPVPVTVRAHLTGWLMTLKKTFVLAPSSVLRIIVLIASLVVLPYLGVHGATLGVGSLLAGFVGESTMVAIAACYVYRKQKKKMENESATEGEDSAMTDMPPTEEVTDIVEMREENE
UniProt P51648: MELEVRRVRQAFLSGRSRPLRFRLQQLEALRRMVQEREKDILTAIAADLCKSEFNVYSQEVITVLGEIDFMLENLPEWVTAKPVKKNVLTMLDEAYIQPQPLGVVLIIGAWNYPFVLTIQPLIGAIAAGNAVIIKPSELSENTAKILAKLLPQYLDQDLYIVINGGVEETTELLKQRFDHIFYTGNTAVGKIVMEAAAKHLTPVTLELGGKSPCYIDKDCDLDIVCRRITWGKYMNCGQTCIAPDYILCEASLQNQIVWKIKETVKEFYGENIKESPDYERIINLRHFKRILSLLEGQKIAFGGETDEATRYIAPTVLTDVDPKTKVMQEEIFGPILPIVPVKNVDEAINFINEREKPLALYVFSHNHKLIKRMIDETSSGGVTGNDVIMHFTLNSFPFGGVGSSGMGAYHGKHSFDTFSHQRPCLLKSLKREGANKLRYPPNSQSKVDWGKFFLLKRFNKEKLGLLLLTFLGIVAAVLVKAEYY
UniProt P49189: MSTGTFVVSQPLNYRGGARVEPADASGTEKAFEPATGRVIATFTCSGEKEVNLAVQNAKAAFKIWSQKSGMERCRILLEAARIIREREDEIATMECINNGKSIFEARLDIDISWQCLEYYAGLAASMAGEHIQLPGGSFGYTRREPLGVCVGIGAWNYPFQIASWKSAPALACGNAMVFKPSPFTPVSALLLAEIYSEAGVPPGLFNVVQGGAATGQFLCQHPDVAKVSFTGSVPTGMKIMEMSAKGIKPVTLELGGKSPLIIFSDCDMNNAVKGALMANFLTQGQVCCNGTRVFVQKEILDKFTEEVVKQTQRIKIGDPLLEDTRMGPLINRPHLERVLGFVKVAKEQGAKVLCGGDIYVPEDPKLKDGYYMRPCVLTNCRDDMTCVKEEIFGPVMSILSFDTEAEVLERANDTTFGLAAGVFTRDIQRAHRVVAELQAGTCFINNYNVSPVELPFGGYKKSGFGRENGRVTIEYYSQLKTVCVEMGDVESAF
UniProt Q68DC2: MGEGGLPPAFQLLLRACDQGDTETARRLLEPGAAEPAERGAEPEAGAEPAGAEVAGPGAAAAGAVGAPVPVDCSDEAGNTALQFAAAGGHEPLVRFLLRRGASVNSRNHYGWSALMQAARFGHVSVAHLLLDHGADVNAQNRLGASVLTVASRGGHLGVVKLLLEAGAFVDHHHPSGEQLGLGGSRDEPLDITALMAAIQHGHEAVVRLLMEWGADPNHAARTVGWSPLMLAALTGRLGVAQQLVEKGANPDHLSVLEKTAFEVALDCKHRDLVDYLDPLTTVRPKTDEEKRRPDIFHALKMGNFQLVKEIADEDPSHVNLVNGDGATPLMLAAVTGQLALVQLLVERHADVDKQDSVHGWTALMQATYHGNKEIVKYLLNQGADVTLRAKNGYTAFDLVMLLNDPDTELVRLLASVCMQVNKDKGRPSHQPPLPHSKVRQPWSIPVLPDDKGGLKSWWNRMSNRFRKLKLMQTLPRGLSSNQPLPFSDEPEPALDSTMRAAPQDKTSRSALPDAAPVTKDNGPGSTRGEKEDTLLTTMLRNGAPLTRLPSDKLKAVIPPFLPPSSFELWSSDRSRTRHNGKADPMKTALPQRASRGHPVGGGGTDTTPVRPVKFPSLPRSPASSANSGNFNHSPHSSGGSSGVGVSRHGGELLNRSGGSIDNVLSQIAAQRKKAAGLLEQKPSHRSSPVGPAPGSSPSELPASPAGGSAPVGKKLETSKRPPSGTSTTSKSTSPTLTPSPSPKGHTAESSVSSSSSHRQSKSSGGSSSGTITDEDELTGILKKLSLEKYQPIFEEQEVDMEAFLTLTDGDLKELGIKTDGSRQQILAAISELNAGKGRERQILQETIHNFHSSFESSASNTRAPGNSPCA
UniProt Q9ULJ7: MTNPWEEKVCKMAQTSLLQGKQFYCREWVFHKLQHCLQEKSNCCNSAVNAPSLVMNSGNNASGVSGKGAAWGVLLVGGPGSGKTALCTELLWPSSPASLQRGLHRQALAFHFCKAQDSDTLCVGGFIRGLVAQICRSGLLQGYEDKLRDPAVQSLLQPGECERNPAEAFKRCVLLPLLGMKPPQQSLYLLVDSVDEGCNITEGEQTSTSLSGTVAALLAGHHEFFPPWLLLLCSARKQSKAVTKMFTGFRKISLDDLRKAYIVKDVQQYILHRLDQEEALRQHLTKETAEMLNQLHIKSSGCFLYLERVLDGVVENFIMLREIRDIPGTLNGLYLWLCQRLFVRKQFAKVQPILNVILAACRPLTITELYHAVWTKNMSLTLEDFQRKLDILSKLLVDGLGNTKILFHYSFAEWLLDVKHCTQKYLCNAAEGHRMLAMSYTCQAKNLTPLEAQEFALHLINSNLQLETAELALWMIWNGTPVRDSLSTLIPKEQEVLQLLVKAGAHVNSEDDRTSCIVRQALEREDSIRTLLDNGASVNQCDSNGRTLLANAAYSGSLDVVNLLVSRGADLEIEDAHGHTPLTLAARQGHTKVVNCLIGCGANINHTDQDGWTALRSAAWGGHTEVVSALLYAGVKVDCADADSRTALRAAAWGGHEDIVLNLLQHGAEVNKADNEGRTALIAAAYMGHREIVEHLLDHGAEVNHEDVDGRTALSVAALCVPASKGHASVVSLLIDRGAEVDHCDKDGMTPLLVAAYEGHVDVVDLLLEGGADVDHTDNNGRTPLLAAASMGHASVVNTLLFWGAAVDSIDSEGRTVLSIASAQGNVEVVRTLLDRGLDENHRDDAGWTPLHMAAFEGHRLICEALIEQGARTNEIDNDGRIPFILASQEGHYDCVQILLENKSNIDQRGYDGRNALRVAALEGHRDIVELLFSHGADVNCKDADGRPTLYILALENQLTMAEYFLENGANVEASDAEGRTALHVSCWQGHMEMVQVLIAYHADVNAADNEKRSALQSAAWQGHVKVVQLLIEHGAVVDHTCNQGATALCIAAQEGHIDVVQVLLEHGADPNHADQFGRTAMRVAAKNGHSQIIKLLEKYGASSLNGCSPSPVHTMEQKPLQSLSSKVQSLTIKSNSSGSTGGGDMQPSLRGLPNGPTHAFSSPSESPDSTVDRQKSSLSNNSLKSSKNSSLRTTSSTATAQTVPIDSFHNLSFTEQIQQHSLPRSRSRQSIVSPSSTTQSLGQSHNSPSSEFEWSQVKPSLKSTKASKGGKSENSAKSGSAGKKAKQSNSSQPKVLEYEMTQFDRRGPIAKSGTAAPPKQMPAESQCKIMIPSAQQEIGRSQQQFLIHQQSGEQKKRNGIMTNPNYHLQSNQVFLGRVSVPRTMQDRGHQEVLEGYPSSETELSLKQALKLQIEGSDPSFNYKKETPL
UniProt Q9BS18, whole entry, looked up: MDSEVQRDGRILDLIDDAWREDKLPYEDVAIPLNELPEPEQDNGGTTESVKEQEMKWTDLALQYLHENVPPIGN
UniProt A1A5B4: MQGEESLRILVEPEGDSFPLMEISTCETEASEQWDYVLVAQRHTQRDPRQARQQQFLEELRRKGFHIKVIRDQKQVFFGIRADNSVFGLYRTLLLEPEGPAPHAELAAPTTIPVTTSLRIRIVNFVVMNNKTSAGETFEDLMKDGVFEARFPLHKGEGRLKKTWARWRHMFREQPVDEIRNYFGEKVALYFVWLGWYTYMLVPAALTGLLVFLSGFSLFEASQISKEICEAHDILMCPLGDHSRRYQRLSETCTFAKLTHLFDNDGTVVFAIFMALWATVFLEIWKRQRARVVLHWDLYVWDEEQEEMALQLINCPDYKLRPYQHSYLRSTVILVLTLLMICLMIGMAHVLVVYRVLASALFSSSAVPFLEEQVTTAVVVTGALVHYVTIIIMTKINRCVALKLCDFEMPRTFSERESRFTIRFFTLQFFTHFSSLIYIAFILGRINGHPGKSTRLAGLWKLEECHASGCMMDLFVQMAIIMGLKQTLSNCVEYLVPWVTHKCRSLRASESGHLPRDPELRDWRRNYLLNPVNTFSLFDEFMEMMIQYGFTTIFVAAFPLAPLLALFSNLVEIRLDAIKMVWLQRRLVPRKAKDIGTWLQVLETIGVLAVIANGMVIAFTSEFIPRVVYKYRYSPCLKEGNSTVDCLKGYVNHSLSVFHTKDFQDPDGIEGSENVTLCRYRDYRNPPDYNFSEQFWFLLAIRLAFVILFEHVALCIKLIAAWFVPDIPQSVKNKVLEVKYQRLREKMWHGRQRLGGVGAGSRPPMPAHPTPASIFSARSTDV
UniProt Q6ZW76: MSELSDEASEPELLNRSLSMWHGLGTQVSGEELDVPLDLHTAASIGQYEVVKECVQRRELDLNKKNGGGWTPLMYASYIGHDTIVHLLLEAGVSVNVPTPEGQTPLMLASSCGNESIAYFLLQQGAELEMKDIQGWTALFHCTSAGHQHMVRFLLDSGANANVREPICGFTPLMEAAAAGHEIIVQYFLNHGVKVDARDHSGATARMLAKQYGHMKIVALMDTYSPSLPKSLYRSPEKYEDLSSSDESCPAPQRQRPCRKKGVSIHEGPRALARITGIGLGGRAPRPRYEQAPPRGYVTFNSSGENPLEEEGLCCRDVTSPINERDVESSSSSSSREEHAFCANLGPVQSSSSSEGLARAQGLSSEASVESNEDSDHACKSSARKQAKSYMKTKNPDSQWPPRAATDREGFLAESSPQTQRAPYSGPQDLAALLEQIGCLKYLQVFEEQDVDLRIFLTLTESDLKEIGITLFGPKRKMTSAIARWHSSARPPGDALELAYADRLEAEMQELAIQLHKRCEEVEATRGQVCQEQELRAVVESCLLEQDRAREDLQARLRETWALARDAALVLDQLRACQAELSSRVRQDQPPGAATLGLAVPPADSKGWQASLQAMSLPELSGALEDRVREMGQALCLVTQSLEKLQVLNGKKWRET
UniProt Q9BT30: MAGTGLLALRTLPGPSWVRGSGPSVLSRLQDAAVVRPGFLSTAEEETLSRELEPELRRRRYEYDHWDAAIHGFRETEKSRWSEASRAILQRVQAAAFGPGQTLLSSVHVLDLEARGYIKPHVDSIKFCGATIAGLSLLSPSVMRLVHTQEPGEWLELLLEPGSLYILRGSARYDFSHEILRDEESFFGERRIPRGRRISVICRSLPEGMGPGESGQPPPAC

[1] = compound: C/C(=N\NC(=O)C1=CC(=CC=C1)S(=O)(=O)N2CCOCC2)/C3=C(C=CC(=C3)Cl)O
Method in brief: as §1

[2] = compound: C1=CC(=CC=C1C2=NC3=C(N2)C=C(C=C3)C(=O)N)OC4=CC=C(C=C4)Cl
Method in brief: as §1

[3] = compound: C1=CC2=C(C=CC(=C2)/C=C\3/C(=O)NC(=NCC4=CC=CS4)S3)N=C1
Method in brief: as §1

[4] = compound: C1=CC2=NC=CN=C2C=C1/C=C/3\C(=O)NC(=O)S3
Method in brief: as §1

[5] = compound: C1=CC=C(C=C1)C2=NC(=C(N2)C3=CC=NC=C3)C4=CC(=C(C=C4)Cl)O
Method in brief: as §1

[6] = compound: C1=CC=C2C(=C1)C3=NNC4=CC=CC(=C43)C2=O
Method in brief: as §1

[7] = compound: C1CCN(C1)C(=O)NC2=CC=CC(=C2)NC3=NC=C(C(=N3)NCCC4=CN=CN4)Br
Method in brief: as §1

[8] = compound: C1CN(CCC1(CC2=CC=C(C=C2)Cl)N)C3=NC=NC4=C3C=CN4
Method in brief: as §1

IRAK-1-4 Inhibitor I = compound: C1COCCN1CCN2C3=CC=CC=C3N=C2NC(=O)C4=CC(=CC=C4)[N+](=O)[O-] [IRAK-1-4 Inhibitor I]
Method in brief: as §1

ANKRD13A (UniProt Q8IZ07)
log2 fold change (erlotinib): inactive: -0.009 | log2 fold change [1]: inactive: -0.018 | log2 fold change [2]: inactive: 0.018 | log2 fold change [3]: inactive: 0.041 | log2 fold change [4]: inactive: -0.002 | log2 fold change [5]: inactive: -0.004 | log2 fold change [6]: inactive: -0.01 | log2 fold change [7]: inactive: -0.001 | log2 fold change [8]: inactive: 0.026 | log2 fold change (IRAK-1-4 Inhibitor I): inactive: 0.007

ALG10B (UniProt Q5I7T1)
log2 fold change (erlotinib): inactive: 0.034 | log2 fold change [2]: inactive: 0.024 | log2 fold change [4]: inactive: -0.036 | log2 fold change [5]: inactive: -0.039 | log2 fold change (IRAK-1-4 Inhibitor I): inactive: 0.047

ANKRD29 (UniProt Q8N6D5)
log2 fold change (erlotinib): inactive: 0.01 | log2 fold change [1]: inactive: 0 | log2 fold change [2]: inactive: -0.064 | log2 fold change [3]: inactive: -0.006 | log2 fold change [4]: inactive: 0.117 | log2 fold change [6]: inactive: -0.173 | log2 fold change [7]: inactive: -0.078 | log2 fold change [8]: inactive: 0.205

AP1S2 (UniProt P56377)
log2 fold change (erlotinib): inactive: 0.057 | log2 fold change [1]: inactive: 0.034 | log2 fold change [2]: inactive: -0.058 | log2 fold change [3]: inactive: 0.032 | log2 fold change [4]: inactive: -0.054 | log2 fold change [5]: inactive: -0.039 | log2 fold change [6]: inactive: 0.021 | log2 fold change [7]: inactive: 0.235 | log2 fold change [8]: inactive: 0.067 | log2 fold change (IRAK-1-4 Inhibitor I): inactive: 0.211

ANKRD11 (UniProt Q6UB99)
log2 fold change (erlotinib): inactive: -0.005 | log2 fold change [1]: inactive: -0.077 | log2 fold change [2]: inactive: 0.011 | log2 fold change [3]: inactive: 0.034 | log2 fold change [5]: inactive: 0.003 | log2 fold change [6]: inactive: -0.038 | log2 fold change [7]: inactive: -0.103 | log2 fold change [8]: inactive: -0.016 | log2 fold change (IRAK-1-4 Inhibitor I): inactive: -0.01

ANKRD46 (UniProt Q86W74)
log2 fold change (erlotinib): inactive: -0.111 | log2 fold change [1]: inactive: -0.279 | log2 fold change [2]: inactive: 0.258 | log2 fold change [3]: inactive: 0.174 | log2 fold change [5]: inactive: 0.008 | log2 fold change [6]: inactive: 0.088 | log2 fold change (IRAK-1-4 Inhibitor I): inactive: 0.072

AP1S1 (UniProt P61966)
log2 fold change (erlotinib): inactive: -0.016 | log2 fold change [1]: inactive: -0.088 | log2 fold change [2]: inactive: -0.064 | log2 fold change [3]: inactive: 0 | log2 fold change [4]: inactive: -0.029 | log2 fold change [5]: inactive: -0.01 | log2 fold change [6]: inactive: 0.076 | log2 fold change [7]: inactive: 0.015 | log2 fold change [8]: inactive: -0.018 | log2 fold change (IRAK-1-4 Inhibitor I): inactive: -0.002

AMFR (UniProt Q9UKV5)
log2 fold change (erlotinib): inactive: -0.037 | log2 fold change [1]: inactive: 0.204 | log2 fold change [2]: inactive: -0.157 | log2 fold change [3]: inactive: -0.114 | log2 fold change [5]: inactive: -0.026 | log2 fold change [6]: inactive: -0.219 | log2 fold change [7]: inactive: -0.324 | log2 fold change [8]: inactive: 0.069 | log2 fold change (IRAK-1-4 Inhibitor I): inactive: 0.021

ANKH (UniProt Q9HCJ1)
log2 fold change (erlotinib): inactive: -0.102 | log2 fold change [1]: inactive: 0.036 | log2 fold change [2]: inactive: 0.074 | log2 fold change [3]: inactive: -0.014 | log2 fold change [5]: inactive: 0.016 | log2 fold change [6]: inactive: 0.018 | log2 fold change [7]: inactive: -0.118 | log2 fold change [8]: inactive: 0.002 | log2 fold change (IRAK-1-4 Inhibitor I): inactive: 0.197

AP3S2 (UniProt P59780)
log2 fold change (erlotinib): inactive: -0.025 | log2 fold change [2]: inactive: 0.009

ALDH3A2 isoform 2 (UniProt P51648)
log2 fold change [5]: inactive: 0.001 | log2 fold change (IRAK-1-4 Inhibitor I): inactive: -0.376

ANKHD1 (UniProt D6RHC4)
log2 fold change (erlotinib): inactive: -0.037 | log2 fold change [2]: inactive: 0.211 | log2 fold change [5]: inactive: -0.032 | log2 fold change (IRAK-1-4 Inhibitor I): inactive: -0.025

ALDH9A1 (UniProt P49189)
log2 fold change [1]: inactive: -0.08 | log2 fold change [3]: inactive: -0.093 | log2 fold change [4]: inactive: 0.005 | log2 fold change [5]: inactive: -0.004 | log2 fold change [6]: inactive: -0.046 | log2 fold change (IRAK-1-4 Inhibitor I): inactive: 0.029

ALAS1 (UniProt P13196)
log2 fold change [4]: inactive: 0.093 | log2 fold change [5]: inactive: 0.029 | log2 fold change [7]: inactive: 0.014 | log2 fold change [8]: inactive: -0.122 | log2 fold change (IRAK-1-4 Inhibitor I): inactive: -0.036

ANKS6 isoform 4 (UniProt Q68DC2)
log2 fold change (erlotinib): inactive: 0.119 | log2 fold change [2]: inactive: 0.106 | log2 fold change [5]: inactive: -0.117 | log2 fold change [7]: inactive: -0.054 | log2 fold change [8]: inactive: 0.011 | log2 fold change (IRAK-1-4 Inhibitor I): inactive: -0.056

AP2S1 (UniProt M0QZ21)
log2 fold change [4]: inactive: -0.027

ANAPC15 isoform 2 (UniProt P60006)
log2 fold change (erlotinib): inactive: -0.003 | log2 fold change [2]: inactive: 0.154 | log2 fold change [7]: inactive: 0.194 | log2 fold change [8]: inactive: -0.046

ANKRD50 (UniProt Q9ULJ7)
log2 fold change (erlotinib): inactive: -0.048 | log2 fold change [2]: inactive: 0.169 | log2 fold change [5]: inactive: -0.046 | log2 fold change [7]: inactive: -0.037 | log2 fold change [8]: inactive: -0.015 | log2 fold change (IRAK-1-4 Inhibitor I): inactive: -0.045

AKTIP isoform 2 (UniProt Q9H8T0)
log2 fold change (erlotinib): inactive: 0.005 | log2 fold change [2]: inactive: 0.12 | log2 fold change [5]: inactive: -0.024 | log2 fold change [7]: inactive: 0.018 | log2 fold change [8]: inactive: 0.166 | log2 fold change (IRAK-1-4 Inhibitor I): inactive: 0.095

ANXA6 (UniProt E5RK69)
log2 fold change (erlotinib): inactive: 0.066 | log2 fold change [2]: inactive: 0.096 | log2 fold change [7]: inactive: -0.098 | log2 fold change [8]: inactive: 0.054

ANGEL1 (UniProt Q9UNK9)
log2 fold change [5]: inactive: -0.131 | log2 fold change (IRAK-1-4 Inhibitor I): inactive: 0.041

ANKRD12 (UniProt Q6UB98)
log2 fold change [5]: inactive: 0.065 | log2 fold change [7]: inactive: 0.097 | log2 fold change [8]: inactive: 0.133 | log2 fold change (IRAK-1-4 Inhibitor I): inactive: 0.119

ANAPC13 (UniProt Q9BS18)
log2 fold change [1]: inactive: 0.132 | log2 fold change [3]: inactive: -0.009 | log2 fold change [6]: inactive: -0.241 | log2 fold change [7]: inactive: 0.262 | log2 fold change [8]: inactive: -0.077

AMOT (UniProt Q4VCS5)
log2 fold change [5]: inactive: 0.009 | log2 fold change [7]: inactive: 0.058 | log2 fold change [8]: inactive: -0.031 | log2 fold change (IRAK-1-4 Inhibitor I): inactive: 0.07

ANO9 (UniProt A1A5B4)
log2 fold change [5]: inactive: 0.449 | log2 fold change (IRAK-1-4 Inhibitor I): inactive: 0.138

AMIGO2 (UniProt Q86SJ2)
log2 fold change [1]: inactive: 0.071 | log2 fold change [3]: inactive: 0.091 | log2 fold change [6]: inactive: -0.012

AP2M1 (UniProt C9JTK4)
log2 fold change [5]: inactive: -0.038 | log2 fold change (IRAK-1-4 Inhibitor I): inactive: -0.048

ANKRD16 (UniProt Q6P6B7)
log2 fold change [4]: inactive: -0.018 | log2 fold change [7]: inactive: -0.126 | log2 fold change [8]: inactive: 0.012

ANKS3 (UniProt Q6ZW76)
log2 fold change [1]: inactive: 0.333 | log2 fold change [3]: inactive: -0.005 | log2 fold change [4]: inactive: 0.111 | log2 fold change [6]: inactive: -0.065 | log2 fold change [7]: inactive: -0.016 | log2 fold change [8]: inactive: 0.006

ANAPC11 (UniProt Q9NYG5)
log2 fold change [4]: inactive: 0.031 | log2 fold change [5]: inactive: -0.014 | log2 fold change (IRAK-1-4 Inhibitor I): inactive: -0.051

ANKRD13B (UniProt Q86YJ7)
log2 fold change [7]: inactive: 0.048 | log2 fold change [8]: inactive: -0.071

ALKBH7 (UniProt Q9BT30)
log2 fold change (erlotinib): inactive: -0.169 | log2 fold change [2]: inactive: -0.02 | log2 fold change [5]: inactive: 0 | log2 fold change [7]: inactive: -0.033 | log2 fold change [8]: inactive: 0.027 | log2 fold change (IRAK-1-4 Inhibitor I): inactive: -0.04

AP1B1 isoform 3 (UniProt Q10567)
log2 fold change [4]: inactive: -0.095 | log2 fold change [5]: inactive: -0.247 | log2 fold change (IRAK-1-4 Inhibitor I): inactive: 0.002

ANKRD31 (UniProt Q8N7Z5)
log2 fold change [4]: inactive: -0.111 | log2 fold change [7]: inactive: -0.099 | log2 fold change [8]: inactive: 0.079

ALDH3A1 (UniProt P30838)
log2 fold change (erlotinib): inactive: 0.147 | log2 fold change [2]: inactive: 0.257 | log2 fold change [5]: inactive: 0.147 | log2 fold change (IRAK-1-4 Inhibitor I): inactive: 0.059

ANKRD13C (UniProt Q8N6S4)
log2 fold change [4]: inactive: 0.006 | log2 fold change [5]: inactive: 0.12 | log2 fold change (IRAK-1-4 Inhibitor I): inactive: -0.095

ALDH18A1 isoform 2 (UniProt P54886)
log2 fold change [1]: inactive: -0.298 | log2 fold change [3]: inactive: -0.142 | log2 fold change [5]: inactive: 0.092 | log2 fold change [6]: inactive: -0.05 | log2 fold change (IRAK-1-4 Inhibitor I): inactive: 0.046

ANP32E isoform 3 (UniProt Q9BTT0)
log2 fold change [1]: inactive: -0.079 | log2 fold change [3]: inactive: -0.002 | log2 fold change [4]: inactive: -0.011 | log2 fold change [6]: inactive: 0.012 | log2 fold change [7]: inactive: 0.075 | log2 fold change [8]: inactive: -0.01

ANKIB1 (UniProt Q9P2G1)
log2 fold change [5]: inactive: -0.037 | log2 fold change (IRAK-1-4 Inhibitor I): inactive: -0.052

ANK2 (UniProt Q01484)
log2 fold change [4]: inactive: -0.044 | log2 fold change [5]: inactive: -0.077 | log2 fold change (IRAK-1-4 Inhibitor I): inactive: 0.06

ALDH1A3 (UniProt P47895)
log2 fold change [7]: inactive: 0.38 | log2 fold change [8]: inactive: 0.079

AMDHD2 (UniProt Q9Y303)
log2 fold change [1]: active: -0.527 | log2 fold change [3]: inactive: 0.212 | log2 fold change [6]: inactive: -0.391

ANKRD30A (UniProt Q9BXX3)
log2 fold change [4]: inactive: 0.035 | log2 fold change [5]: inactive: -0.06 | log2 fold change [7]: inactive: 0.415 | log2 fold change [8]: inactive: 0.144 | log2 fold change (IRAK-1-4 Inhibitor I): inactive: -0.176

Source: the supplement of paper PMC10849652
